Our source for the isolated yield and isolated mass values is patent publication US7183279B2 (University of Ottawa, priority 2006, dated 2007).

One data set is described as follows: peptide synthesis. The conditions noted are these: whole synthesis.
The nature of data set [1]: general procedure: Boc solid-phase peptide synthesis; oxime resin; DCC, DMAP, N-hydroxybenzotriazole. The note with it: whole synthesis.
Data set [2] is described as follows: general procedure: Boc solid-phase peptide synthesis; oxime-resin (Novabiochem), 0.57 meq/g; DCC, DMAP, N-hydroxybenzotriazole. The note with it: whole synthesis; for isolated yield: scale of the general procedure 1.5 g resin.

For part of these data: HELM strings list residues between dots; [ac] is acetyl, [am] amide, other brackets name non-standard units.

In the data set “peptide synthesis”, cyclo(-Gly-(p-amino)Phe-Tyr-D-Arg-) displayed an isolated yield of 9%. The substance “PEPTIDE1{G.[Phe4Cl].Y.[dR]}$PEPTIDE1,PEPTIDE1,1:R1-4:R2$$$V2.0” gave an isolated mass in data set [1] of 50 mg. This substance also registered an isolated yield in data set [1] (based on starting resin, scale of the general procedure 1.5 g resin) of 11%. In data set [2], “PEPTIDE1{T.[Phe4Cl].Y.[dR]}$PEPTIDE1,PEPTIDE1,1:R1-4:R2$$$V2.0” registered an isolated mass of 40 mg and an isolated yield of 9%. In the case of “cyclo(-Gly-(p-chloro)Phe-Tyr-(p-guanidino)Phe-)”, in data set [2], the isolated mass stood at 15 mg and the isolated yield amounted to 2%. Taken in the same sequence, the figures for “cyclo(-Gly-(p-chloro)Phe-Tyr-(p-amino)Phe-)” were 45 mg and 9%.
